{
  "source": "paper doi:10.1101/2024.11.20.624454",
  "about": "(bioRxiv, 2024)",
  "key": {"[1]": {"target": "T1, Mus musculus SPO11, MBP-tagged (Mus musculus, UniProt Q9WTK8 1-396)", "T1 sequence (looked up)": "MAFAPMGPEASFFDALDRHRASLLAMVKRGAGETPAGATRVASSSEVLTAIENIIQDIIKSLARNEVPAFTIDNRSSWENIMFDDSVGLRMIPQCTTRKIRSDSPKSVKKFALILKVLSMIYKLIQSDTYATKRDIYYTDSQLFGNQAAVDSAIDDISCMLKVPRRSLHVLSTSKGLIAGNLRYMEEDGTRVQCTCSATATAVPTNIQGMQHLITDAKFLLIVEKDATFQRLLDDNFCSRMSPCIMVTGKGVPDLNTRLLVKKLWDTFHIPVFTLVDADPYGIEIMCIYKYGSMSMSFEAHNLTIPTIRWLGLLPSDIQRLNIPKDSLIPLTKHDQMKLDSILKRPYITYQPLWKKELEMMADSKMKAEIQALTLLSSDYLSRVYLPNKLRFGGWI", "test": "SEC-MALS"}, "[2]": {"target": "MBPSPO11-HisFlagTOP6BL complex (1:1) (Mus musculus) (UniProt Q9WTK8+J3QMY9)", "test": "SEC-MALS"}},
  "note": "These are yes or no findings as the source states them, for the method shown. Sequences can lack the tags named with a protein.",
  "data": [
    {"binder": "Mus musculus SPO11, MBP-tagged (enzyme, UniProt Q9WTK8 1-396) MAFAPMGPEASFFDALDRHRASLLAMVKRGAGETPAGATRVASSSEVLTAIENIIQDIIKSLARNEVPAFTIDNRSSWENIMFDDSVGLRMIPQCTTRKIRSDSPKSVKKFALILKVLSMIYKLIQSDTYATKRDIYYTDSQLFGNQAAVDSAIDDISCMLKVPRRSLHVLSTSKGLIAGNLRYMEEDGTRVQCTCSATATAVPTNIQGMQHLITDAKFLLIVEKDATFQRLLDDNFCSRMSPCIMVTGKGVPDLNTRLLVKKLWDTFHIPVFTLVDADPYGIEIMCIYKYGSMSMSFEAHNLTIPTIRWLGLLPSDIQRLNIPKDSLIPLTKHDQMKLDSILKRPYITYQPLWKKELEMMADSKMKAEIQALTLLSSDYLSRVYLPNKLRFGGWI", "values": [
      {"measurement": "binding", "setting": "[1]", "value": "no binding (tested: 4 µM)"}
    ]},
    {"binder": "MBPSPO11-HisFlagTOP6BL complex (1:1) (complex, UniProt Q9WTK8 1-396; J3QMY9 1-579) chain 1: MAFAPMGPEASFFDALDRHRASLLAMVKRGAGETPAGATRVASSSEVLTAIENIIQDIIKSLARNEVPAFTIDNRSSWENIMFDDSVGLRMIPQCTTRKIRSDSPKSVKKFALILKVLSMIYKLIQSDTYATKRDIYYTDSQLFGNQAAVDSAIDDISCMLKVPRRSLHVLSTSKGLIAGNLRYMEEDGTRVQCTCSATATAVPTNIQGMQHLITDAKFLLIVEKDATFQRLLDDNFCSRMSPCIMVTGKGVPDLNTRLLVKKLWDTFHIPVFTLVDADPYGIEIMCIYKYGSMSMSFEAHNLTIPTIRWLGLLPSDIQRLNIPKDSLIPLTKHDQMKLDSILKRPYITYQPLWKKELEMMADSKMKAEIQALTLLSSDYLSRVYLPNKLRFGGWI chain 2: MERTALAVCEILRYLIIHWKCEAGTAKGTLLDGQLVISIEALRSKHLPDSLHCIITIASTRSVYGGLNFKKFLQEIQPALPRLSAKLALASEEGGRSQDASGIAPCQVTFEVDENSQSLMTDCLVIKHFLRKIIIVHHKLKFSFSVAVNGTLSAETFGAENEPTLRLDNGVTLVVGFQRYVSKPKLNWSEAHCSRIHPVLGHPAPLFIPDAKADTGLLGELTLTPAAALCPSPKGFSSQLCRISSVSIFLYGPLGLPLLSSDQDQPSTAVFRDTSYFIDWKKYNLFMVPNLDLNLDTQSVLPDVNYKAESPEGNQSQNMNAQGPALLLFLFVDFQSDVPVQQAKIWGLHTLLTAHLSAILSESRSTVQQSIQSAVDQVWQLYHHDAKTQQRLQASLSVAVNSIMSVLTGSTRSSFRKTCLQALEAADTQEFGVKLHRIFYDITQHQFLKHCSCDTEQHLTPEKNISAQNTKDQHKNIAQEFPEESIGQAENKRPKRGSPNHGREESRVLGSARDRSPPKSATRDRELTEVSLTARGSQTQAAHGRAQAAEAASPAGGLEDLWLQEVSNLSEWLNPGHRS", "values": [
      {"measurement": "binding", "setting": "[2]", "value": "no binding"}
    ]}
  ]
}
